This note sets out measurements from patent publication US8772269B2, “Use of sulfonamide-including compounds in combination with angiogenesis inhibitors” (Eisai R&D Management Co., Ltd., priority 2004, dated 2014).

This data set has as its system 36 human cancer cell lines. Nature of the data set: Cancer cell line panel experiment (correlation of antiproliferative activity). The class given is cell-based. Conditions: Pearson's correlation of 50% growth inhibitory concentration patterns over 36 cell lines; for correlation coefficient with CQS: vs CQS; for correlation coefficient with E7070: vs E7070; for correlation coefficient with E7820: vs E7820; for correlation coefficient with LY186641: vs LY186641; for correlation coefficient with LY295501: vs LY295501.

Take `NS(=O)(=O)c1ccc(S(=O)(=O)Nc2cccc3c(Cl)c[nH]c23)cc1` [E7070, N-(3-chloro-1H-indol-7-yl)-4-sulfamoylbenzenesulfonamide]: the “correlation coefficient with CQS” value came to 0.97, the “correlation coefficient with E7070” value came out at 1.00, the “correlation coefficient with E7820” value is given as 0.98 and the “correlation coefficient with LY186641” value stood at 0.93. Moreover, the “correlation coefficient with LY295501” value is reported as 0.80.

`O=C(Nc1ccc(Cl)c(Cl)c1)NS(=O)(=O)c1ccc2c(c1)CCO2` [LY295501, N-[[(3,4-dichlorophenyl)amino]-carbonyl]-2,3-dihydrobenzofuran-5-sulfonamide]: the “correlation coefficient with CQS” value was 0.82, the “correlation coefficient with E7070” value was found to be 0.80, the “correlation coefficient with E7820” value was determined as 0.82 and the “correlation coefficient with LY186641” value is on record as 0.81. Also, the “correlation coefficient with LY295501” value was 1.00.

Turning to `O=C(Nc1ccc(Cl)cc1)NS(=O)(=O)c1ccc2c(c1)CCC2` [LY186641, N-[[(4-chlorophenyl)amino]carbonyl]-2,3-dihydro-1H-indene-5-sulfonamide], the “correlation coefficient with CQS” value is 0.92, the “correlation coefficient with E7070” value worked out at 0.93, the “correlation coefficient with E7820” value was 0.95 and the “correlation coefficient with LY186641” value amounted to 1.00. For the same compound, the “correlation coefficient with LY295501” value is given as 0.81.

Take `Nc1ccc(S(=O)(=O)Nc2cnc3c(Cl)cccc3n2)cc1` [CQS, 2-sulfanylamido-5-chloroquinoxaline]: the “correlation coefficient with CQS” value came out at 1.00, the “correlation coefficient with E7070” value was 0.97, the “correlation coefficient with E7820” value is listed as 0.96 and the “correlation coefficient with LY186641” value turned out to be 0.92. The “correlation coefficient with LY295501” value turned out to be 0.82.

In the case of `Cc1ccc(NS(=O)(=O)c2cccc(C#N)c2)c2[nH]cc(C#N)c12` [E7820, N-(3-cyano-4-methyl-1H-indol-7-yl)-3-cyanobenzenesulfonamide], the “correlation coefficient with CQS” value was determined as 0.96, the “correlation coefficient with E7070” value was 0.98, the “correlation coefficient with E7820” value was found to be 1.00 and the “correlation coefficient with LY186641” value is on record as 0.95. The “correlation coefficient with LY295501” value was found to be 0.82.
